# The list is a part of this screen's results and no random one: it gathers tests that were run many times, whatever their T/C, doses with no T/C, and many T/C values between a quarter and a half above the control. Further doses and runs are listed elsewhere. T/C: endpoint of the treated group in % of that of the vehicle group. Some doses have a count of surviving animals in place of a T/C: the source files T/C as zero there, which appears to mark a toxic dose or a test without result, not a measured value. Some doses without a T/C left all or most animals alive at the check, yet need not have been tolerated: survival well below the control is almost never listed, so the zero probably covers shortened survival too. Counts of survivors are from the toxicity check (mostly the fifth day) where no day follows; animals may have died later. Schedules are NCI's codes, read here as Q, the interval in days (D) or hours (H), X, the number of doses. Some doses were run more than once; the values are given in rising order. For survival time, the PubChem record calls one and a half times the control and up active, and a quarter to a half above the control has no call in these data; cut-offs in other NCI protocols can differ.
# Tested on: P388 leukemia ip, CD2F1 mice, survival T/C
# Assay: NCI In Vivo Anticancer Drug Screen. Data for tumor model P388 Leukemia (intraperitoneal) in CD2F1 (CDF1) mice
# Settings: T/C endpoint: median survival time, higher T/C = longer survival
# [1] = dose: 240.0 mg/kg/injection, schedule: Q01DX005 (ip), vehicle: saline with Tween-80
# [2] = dose: 400.0 mg/kg/injection, schedule: Q04DX002 (ip), vehicle: Klucel (hydroxypropylcellulose) (HPC)
# [3] = dose: 200.0 mg/kg/injection, schedule: Q01DX005 (ip), vehicle: Klucel (hydroxypropylcellulose) (HPC)
compound,measurement,setting,value
CC1C(c2ccccc2)OC(N2CCOCC2)C(C)(C)CN1C (configuration not stated),T/C,"dose: 400.0 mg/kg/injection, schedule: Q01DX005 (ip), vehicle: saline with Tween-80",126 % of control
same,survivor count,"dose: 800.0 mg/kg/injection, schedule: Q01DX005 (ip), vehicle: saline with Tween-80",0 of 6
COc1ccc(C(CC(=O)NCCCl)CC(=O)NCCCl)cc1,survivor count,"dose: 400.0 mg/kg/injection, schedule: Q01DX001 (ip), vehicle: suspension in saline",0 of 6
COC12CCCC3(OCCO3)C1C(Cl)C2Cl (configuration not stated),survivor count,[1],6 of 6
C=CC(C)(C)C12CC3C(=O)N/C(=C\c4cnc[nH]4)C(=O)N3C1Nc1ccccc12 (configuration not stated),survivor count,"dose: 12.5 mg/kg/injection, schedule: Q01DX009 (ip), vehicle: saline with Tween-80",6 of 6
Cc1c(C2=C(Br)C(=O)N(C)C2=O)c(=O)n(C)c(=O)n1C,survivor count,"dose: 240.0 mg/kg/injection, schedule: Q01DX005 (ip), vehicle: Klucel (hydroxypropylcellulose) (HPC)",0 of 6
CN1CCN(C(=O)CCSc2nc(-c3ccccc3)c(-c3ccccc3)o2)CC1,survivor count,"dose: 200.0 mg/kg/injection, schedule: Q01DX009 (ip), vehicle: saline",0 of 6
CC(=O)[OH+]c1c(I)cc(I)cc1C(=O)[O-].CC(=O)[OH+]c1c(I)cc(I)cc1C(=O)[O-].[Cu+2],survivor count,"dose: 120.0 mg/kg/injection, schedule: Q01DX005 (ip), vehicle: saline",2 of 6
same,survivor count,"dose: 240.0 mg/kg/injection, schedule: Q01DX005 (ip), vehicle: saline",0 of 6
COc1cc(C2c3cc4c(cc3OC(O)C2C)OCO4)cc(OC)c1OC (configuration not stated),T/C,"dose: 120.0 mg/kg/injection, schedule: Q01DX005 (ip), vehicle: saline with Tween-80",125 % of control
same,survivor count,[1],6 of 6
c1cc(-c2cc3ccc(C4=NCCN4)cc3s2)ccc1C1=NCCN1,survivor count,"dose: 100.0 mg/kg/injection, schedule: Q04DX003 (ip), vehicle: saline",0 of 6
CCCCCCCCCCCCCCCCCCCC,survivor count,"dose: 25.0 mg/kg/injection, schedule: Q04DX003 (ip), vehicle: other",6 of 6
O=C(/C=C\c1ccc([N+](=O)[O-])cc1)c1ccccc(=O)c1O,survivor count,"dose: 100.0 mg/kg/injection, schedule: Q01DX001 (ip), vehicle: Klucel (hydroxypropylcellulose) (HPC)",6 of 6
same,survivor count,"dose: 200.0 mg/kg/injection, schedule: Q01DX001 (ip), vehicle: Klucel (hydroxypropylcellulose) (HPC)",4 of 6
same,survivor count,"dose: 400.0 mg/kg/injection, schedule: Q01DX001 (ip), vehicle: Klucel (hydroxypropylcellulose) (HPC)",0 of 6
O=C(NNC(O)C(F)(F)F)c1ccccc1F (configuration not stated),survivor count,"dose: 200.0 mg/kg/injection, schedule: Q04DX002 (ip), vehicle: Klucel (hydroxypropylcellulose) (HPC)",1 of 6
same,survivor count,[2],0 of 6
CC(=O)O[C@H]1[C@@H]2c3c(ccc4c(=O)cc(-c5ccccc5)oc34)O[C@@H]2OC1(C)C,survivor count,"dose: 7.8 mg/kg/injection, schedule: Q01DX005 (ip), vehicle: Klucel (hydroxypropylcellulose) (HPC)",6 of 6
CNC(=O)OCc1nc(SC)n(-c2ccccc2)c1COC(=O)NC,T/C,"dose: 200.0 mg/kg/injection, schedule: Q01DX005 (ip), vehicle: distilled water + Tween-80",127 and 141 % of control
same,survivor count,"dose: 400.0 mg/kg/injection, schedule: Q01DX005 (ip), vehicle: distilled water + Tween-80",2 of 6
C1=NC(C2CC2)c2ccc3c([nH]c4ccccc43)c2N1 (configuration not stated),survivor count,[2],0 of 5
C1=CC2C(O1)OC2c1ccc2ccccc2c1 (configuration not stated),survivor count,"dose: 30.0 mg/kg/injection, schedule: Q01DX005 (ip), vehicle: Klucel + Tween-80",6 of 6
same,survivor count,"dose: 120.0 mg/kg/injection, schedule: Q01DX005 (ip), vehicle: Klucel + Tween-80",0 of 6
same,survivor count,"dose: 240.0 mg/kg/injection, schedule: Q01DX005 (ip), vehicle: Klucel + Tween-80",0 of 6
COC(C(=O)C1=C2Oc3c4c(cc(O)c3C(=O)C2C2=C(CCCC2)C1=O)OC(C)(C)C=C4)C(C)CCC=C(C)C (configuration not stated),T/C,"dose: 100.0 mg/kg/injection, schedule: Q01DX005 (ip), vehicle: saline",126 % of control
NC(C(=O)O)C1C=CCC1 (configuration not stated),survivor count,[3],1 of 6
CCN(CC)CCOC(=O)c1c[nH]c2ccccc12,survivor count,"dose: 50.0 mg/kg/injection, schedule: Q01DX005 (ip), vehicle: Klucel (hydroxypropylcellulose) (HPC)",3 of 6
same,survivor count,"dose: 100.0 mg/kg/injection, schedule: Q01DX005 (ip), vehicle: Klucel (hydroxypropylcellulose) (HPC)",6 of 6
same,survivor count,[3],3 of 6 and 5 of 6
CC(=O)OCC1OC(n2nc(-c3ccccc3)c(=O)n(-c3ccccc3)c2=O)C(OC(C)=O)C(OC(C)=O)C1OC(C)=O (configuration not stated),survivor count,"dose: 400.0 mg/kg/injection, schedule: Q04DX003 (ip), vehicle: saline with Tween-80",3 of 6
CCCCCCCCCCN(CCCCCCCCCC)C1CC(OC2CC(O)(C(C)O)Cc3c(O)c4c(c(O)c32)C(=O)c2c(OC)cccc2C4=O)OC(C)C1O (configuration not stated),survivor count,"dose: 150.0 mg/kg/injection, schedule: Q04DX003 (ip), vehicle: water",0 of 3
